Measured data: PubChem BioAssay AID1259308 (NCATS, 2017)
The deposit covers about 59,000 reagents; this is a part drawn at random. About 1,510 of all reagents (2.6%) count as active. 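Calls use total luciferase alone and ignore viability, so some active siRNAs may act by altering cell number.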 No sequences are given here.

Test: 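Knock-downs that increase output of a recombinant reporter protein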 (primary screen)
Cell system: human HEK293 embryonic kidney cells stably expressing firefly luciferase (HEK-CMV-Luc2-Hygro)
Knock-down reagent: single siRNA against human genes, 0.8 pmol siRNA per well
Duration: 72 h
Detection: 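Reporter luminescence and viable-cell signal on separate replicate plates, given as percent of non-targeting control and median/MAD z-scores, plus per-cell luciferase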
Scale: total luciferase, z-score and total luciferase, % of control: higher = more reporter protein produced; luciferase per cell, z-score: higher = more reporter output per viable cell; viable cells, % of control: higher = more viable cells
Hit rule: 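Active when the median/MAD z-score for overall luciferase is greater than 3; a gene was taken forward for validation with new siRNAs if at least two of its three siRNAs passed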
Calls: active = raised luciferase; inactive = no rise

| total luciferase, z-score | total luciferase, % of control | luciferase per cell, z-score | viable cells, % of control | Call | gene symbol | PubChem SID |
| --- | --- | --- | --- | --- | --- | --- |
| -0.082 | 80.3 | -0.154 | 93.4 | inactive | ZBTB35 (zinc finger and BTB domain containing 35) | SID160719145 |
| -0.218 | 77.6 | 0.381 | 78.4 | inactive | ZBTB35 (zinc finger and BTB domain containing 35) | SID160719147 |
| -0.995 | 62.1 | -1.49 | 103 | inactive | ZBTB35 (zinc finger and BTB domain containing 35) | SID160719148 |
| 0.424 | 90.3 | 0.593 | 86.3 | inactive | SUSD1 (sushi domain containing 1) | SID160747759 |
| -0.429 | 73.4 | -0.0256 | 82.5 | inactive | SUSD1 (sushi domain containing 1) | SID160747760 |
| -1.27 | 56.6 | -1.18 | 86.2 | inactive | SUSD1 (sushi domain containing 1) | SID160747761 |
| 0.245 | 86.8 | 0.411 | 87 | inactive | WRN (WRN RecQ like helicase) | SID160718873 |
| -0.477 | 72.4 | 0.0557 | 79.7 | inactive | WRN (WRN RecQ like helicase) | SID160718874 |
| 1.12 | 104 | 0.752 | 95.5 | inactive | WRN (WRN RecQ like helicase) | SID160718875 |
| -1.56 | 50.9 | -1.91 | 94.2 | inactive | IL36RN (interleukin 36 receptor antagonist) | SID160732871 |
| -1.33 | 55.4 | -1.29 | 87 | inactive | IL36RN (interleukin 36 receptor antagonist) | SID160738053 |
| -1.46 | 52.8 | -1.58 | 89.5 | inactive | IL36RN (interleukin 36 receptor antagonist) | SID160738054 |
| -1.22 | 57.6 | -1.92 | 107 | inactive | DYNC1I2 (dynein cytoplasmic 1 intermediate chain 2) | SID160755473 |
| 0.851 | 98.8 | 0.815 | 89.1 | inactive | DYNC1I2 (dynein cytoplasmic 1 intermediate chain 2) | SID160755482 |
| -0.191 | 78.1 | -0.823 | 108 | inactive | DYNC1I2 (dynein cytoplasmic 1 intermediate chain 2) | SID160755493 |
| 0.874 | 99.3 | 0.806 | 89.7 | inactive | TMEM205 (transmembrane protein 205) | SID160725151 |
| 1.66 | 115 | 1.09 | 96.4 | inactive | TMEM205 (transmembrane protein 205) | SID160725153 |
| -1.62 | 49.7 | -1.97 | 93.2 | inactive | TMEM205 (transmembrane protein 205) | SID160725154 |
| 2.15 | 125 | 1.22 | 101 | inactive | PKIA (cAMP-dependent protein kinase inhibitor alpha) | SID160714907 |
| 2.64 | 134 | 2.08 | 86.9 | inactive | PKIA (cAMP-dependent protein kinase inhibitor alpha) | SID160714908 |
| -0.589 | 70.2 | -0.961 | 101 | inactive | PKIA (cAMP-dependent protein kinase inhibitor alpha) | SID160714909 |
| 0.798 | 97.8 | 1.63 | 71.1 | inactive | OR11H6 (olfactory receptor family 11 subfamily H member 6) | SID160756012 |
| -0.468 | 72.6 | -0.862 | 102 | inactive | OR11H6 (olfactory receptor family 11 subfamily H member 6) | SID160756013 |
| 0.758 | 97 | 0.757 | 88.8 | inactive | OR11H6 (olfactory receptor family 11 subfamily H member 6) | SID160756014 |

Ordered by “total luciferase, % of control” (high to low): some entries from above.
| total luciferase, z-score | total luciferase, % of control | luciferase per cell, z-score | viable cells, % of control | Call | gene symbol | PubChem SID |
| --- | --- | --- | --- | --- | --- | --- |
| -1.22 | 57.6 | -1.92 | 107 | inactive | DYNC1I2 (dynein cytoplasmic 1 intermediate chain 2) | SID160755473 |
| -1.33 | 55.4 | -1.29 | 87 | inactive | IL36RN (interleukin 36 receptor antagonist) | SID160738053 |
| -1.46 | 52.8 | -1.58 | 89.5 | inactive | IL36RN (interleukin 36 receptor antagonist) | SID160738054 |
